Test results published in PubChem BioAssay AID2685 (National Center for Advancing Translational Sciences (NCATS), 2010).
The whole screen tested about 320,000 compounds, of which about 2,100 (0.66%) were called active. This list was built around the results that the source calls inconclusive (neither active nor inactive); the mix of calls is not that of the screen. The call rests on the fitted dose curve; in most records, active means well fitted inhibition curve with a large enough effect in the signal ratio, with a control signal flat (not every such curve was filed as active); inconclusive means small, poorly fitted or top-dose-only effect, or effect the other way, or a change in a side signal; inactive means flat fitted curve, though single readings scatter; the % refers to the signal ratio. Potencies of inconclusive entries are doubtful fits and often do not repeat. Where a SMILES comes first, the peptide text is derived from it. [ ]: non-standard residue; d: D form. The star is where a group is joined. ξ: configuration not given here. ξPhe(4-Me) = Cc1ccc(CC(N)C(=O)O)cc1; Bz = O=C(c1ccccc1)*

assay: qHTS Assay for Lipid Storage Modulators in Drosophila S3 Cells; conditions: BODIPY lipid droplet fluorescence, 18-24 h, cells fed with added oleic acid; lipid storage change, negative = inhibition: at 46.1 µM (top of the series) unless noted
How it was run: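 Drosophila S3 cells loaded with oleic acid (400 uM, as added) and compounds at several concentrations; lipid droplets imaged by 488-nm laser-scanning cytometry, 500–530 nm intensity and object ratio to cell channel. Percent activity normalized to 20 uM Triacsin C.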
On the % scale 0 is the no-effect control and ±100 the full control effect; potency means the concentration at half of the fitted maximal effect.

SMILES | Potency | lipid storage change, negative = inhibition
c1ccc(-c2nc(NCc3ccco3)c3ccccc3n2)nc1 | inconclusive: 1.03 µM [activator, full curve, poor fit] | –
CCOc1cc(/C=N\NC(=O)c2ccc(NC(=O)C(C)(C)C)cc2)ccc1OC(=O)c1ccc(C)cc1 | – | inconclusive: -176%
COc1ccc(-c2nc(CN3CCN(c4ccccc4OC)CC3)c(C)o2)cc1 | inconclusive: 0.731 µM [falling, single point] | –
CCOC(=O)C1(C)NC(c2ccc(O)cc2)C2C(=O)N(c3ccccc3)C(=O)C21 (stereo not given) | active: 20.6 µM | –
Nn1c(SCc2cccc(Oc3ccccc3)c2)nnc1C(F)(F)F | – | inconclusive: 5.72%
CSc1cccc(NS(=O)(=O)c2cc(Br)cnc2N)c1 | – | inconclusive: -35.7%
Cc1ccc(CC(NC(=O)c2ccccc2)C(=O)NCC(=O)O)cc1 (stereo not given) (Bz-[ξPhe(4-Me)]-Gly-OH) | – | inconclusive: -0.905%
Cc1ccc(-n2nnnc2SC(C(=O)c2c[nH]c3ccccc23)c2ccccc2)cc1 (stereo not given) | – | inconclusive: -20.4%
Cn1cc(S(=O)(=O)NCc2cccs2)c(=O)n(C)c1=O | – | inconclusive: 49.6%
Nc1nc(Cn2nnc(-c3ccccc3F)n2)nc(N2CCOCC2)n1 | inconclusive: 29.1 µM [activator, single point] | –
COc1ccc(C2NCCc3cc(OC)c(OC)cc32)cc1OC (stereo not given) | inconclusive: 2.06 µM [falling, partial curve, poor fit] | –
COc1ccc(C(c2c(C)n(C)n(-c3ccccc3)c2=O)c2c(C)n(C)n(-c3ccccc3)c2=O)cc1OC | – | inconclusive: 22%
COc1ccc(N2CCCn3c2nc2c3c(=O)n(CCCc3ccccc3)c(=O)n2C)cc1 | inconclusive: 2.91 µM [activator, partial curve] | –
CC(=O)N1c2ccc(S(=O)(=O)N3CCC(C(=O)N4CCN(c5cccc(C(F)(F)F)c5)CC4)CC3)cc2CC1C (stereo not given) | inconclusive: 29.1 µM [rising, single point] | –
O=C(O)c1c2c(nc3ccccc13)CCCCC2 | – | inconclusive: -9.83%
Cc1ccc(N(Cc2cc(=O)[nH]c3ccccc23)C(=O)C(C)C)c(C)c1 | – | inconclusive: 30.3%
CCOC(=O)c1[nH]c2ccc(OC)cc2c1C | – | inconclusive: 38.2%
C=CCN1C(=O)/C(=C\C(C)=C\c2ccccc2)SC1=S | inconclusive: 29.1 µM [activator, single point] | –
COc1cccc(NC(=O)Nc2nnc(CC(=O)Nc3ccccc3)s2)c1 | – | inconclusive: 15.3%
Cc1ccc(S(=O)(=O)N2CCN(C(=O)Cn3nc(C(=O)O)c4ccccc4c3=O)CC2)cc1 | – | inconclusive: -3.31%
CCC(Sc1nc2ccc(C)cc2[nH]1)C(=O)O (stereo not given) | active: 14.6 µM | –
CCOC(=O)c1c(NC(=O)c2cccnc2)sc(C(C)=O)c1C | – | inactive
COc1ccc2ccccc2c1CN1CCCC(CO)C1 (stereo not given) | – | inconclusive: -11.4%
C=CCN1C(=O)CSc2ccc(C(=O)NC3CCCCC3)cc21 | inconclusive: 6.51 µM [falling, single point] | –
COc1cc(C(C(=O)NC(C)(C)C)N(C(=O)CNC(=O)c2cccs2)c2cccnc2)cc(OC)c1OC (stereo not given) | inconclusive: 29.1 µM [activator, single point] | –

SMILES | Potency | lipid storage change, negative = inhibition
CCCCOc1ccc(C(C)NC(=O)CCS(=O)(=O)Cc2ccccc2Cl)cc1 (stereo not given) | – | inconclusive: -19.9%
COc1ccc(C(=O)N(C)c2ccccc2C(=O)NCCc2ccccc2)cc1 | inconclusive: 18.4 µM [activator, partial curve] | –
Cc1ccc(/C=N/NC(=O)c2nnn(-c3nonc3N)c2C)o1 | – | inactive
CCN(C(=O)Cc1ccc(NC2=NC3CS(=O)(=O)CC3S2)cc1)c1ccccc1 (stereo not given) | – | inconclusive: -13.8%
C(=C\c1ccccc1)/C=N/N1CCN(Cc2ccccc2)CC1 | – | inconclusive: 22.1%
O=C(c1ccc(-n2cncn2)c([N+](=O)[O-])c1)N1CCN(S(=O)(=O)c2ccc(Cl)cc2)CC1 | – | inconclusive: -32.8%
CCCNc1nc(-c2ccccc2)c(C(=O)OCC)cc1C#N | inconclusive: 0.461 µM [activator, single point] | –
CCCN1C(=O)C(O)(c2c(C)[nH]c3ccccc23)c2ccccc21 (stereo not given) | – | inconclusive: 10.9%
COC(=O)C(CCSC)NC(=O)CNC(=O)C1CCCCC1 (stereo not given) | – | inconclusive: -12.3%
CCc1ccc(C(=O)CN2C(=O)NC3(CCOc4ccccc43)C2=O)s1 (stereo not given) | inconclusive: 9.2 µM [falling, single point] | –
CC(=O)Nc1ccc(S(=O)(=O)N2c3ccccc3C(C)=CC2(C)C)cc1 | inconclusive: 29.1 µM [falling, single point] | –
CCn1c(CCC(=O)Nc2nc3c(s2)CCCC3)nc2cc(S(=O)(=O)N(C)C)ccc21 | – | inconclusive: 24.2%
COc1ccc(CCC(=O)N2CCN(C3CCCCC3)CC2)cc1 | – | inconclusive: 22.1%
O=C(Cc1cccs1)NNC(=S)NC(=O)c1ccco1 | inconclusive: 29.1 µM [cytotoxic, single point] | –
O=C1C(=O)N(CC2COc3ccccc3O2)c2ccccc21 (stereo not given) | inconclusive: 8.2 µM [falling, partial curve, poor fit] | –
Cc1occc1C(=O)N/N=C/c1ccc(Cl)c([N+](=O)[O-])c1 | inconclusive: 14.6 µM [falling, partial curve] | –
COc1ccc(CNc2nc(NCc3ccc(OC)cc3)n(C(C)=O)n2)cc1 | inconclusive: 9.2 µM [rising, partial curve, poor fit] | –
CN(C)C(CNC(=O)CCCc1c[nH]c2ccccc12)c1ccco1 (stereo not given) | – | inconclusive: 8.28%
Cc1ccc2c(c1)N(CC(=O)Nc1nccs1)C(=O)CO2 | inconclusive: 0.461 µM [falling, full curve, poor fit] | –
O=C(Cn1nnc(-c2ccc(Cl)cc2)n1)NC1CCS(=O)(=O)C1 (stereo not given) | inconclusive: 0.0052 µM [falling, full curve, poor fit] | –
NC1=NC(=Nc2cccc(Cl)c2)c2ccccc21 | inconclusive: 32.6 µM [activator, single point] | –
CC(C)CC(=O)Nc1ccc(C(=O)COC(=O)C2CC(=O)N(Cc3ccccc3)C2)cc1 (stereo not given) | – | inconclusive: -20%
CCCc1cc(=O)n2nc(N3CCC(C(=O)NCc4ccc(C)o4)CC3)sc2n1 | – | inconclusive: 39.2%
COCCCNC(=O)C(=O)NCCCOC(C)C | – | inconclusive: -22.2%
NC(=O)NC(=O)CC1S/C(=N/N=C/c2ccccc2)NC1=O (stereo not given) | – | inconclusive: -18.7% [at 9.22 µM]

SMILES | Potency | lipid storage change, negative = inhibition
CCOc1ccc(OCC)c(NC(=O)CC2Oc3ccc(C)cc3NC2=O)c1 (stereo not given) | – | inconclusive: 92.7%
CC(Oc1ccccc1)C(=O)Nc1cc(Cl)ccc1-n1cncn1 (stereo not given) | inconclusive: 2.31 µM [rising, partial curve] | –
CC(C)(C)NC[C@@H](O)COc1cccc2c1CCCC2=O | – | inconclusive: -7.68%
CCOC(=O)c1cc(C)sc1NC(=O)CSc1nccn1C | – | inconclusive: 11.3%
COc1ccc(Cc2nc(-c3ccccn3)no2)cc1 | inconclusive: 8.2 µM [falling, partial curve, poor fit] | –
CC1=C(C(=O)N2CCOCC2)C(c2ccccc2F)NC(=O)N1 (stereo not given) | inconclusive: 4.11 µM [cytotoxic, single point] | –
O=S1(=O)N=C(N=Nc2c(O)[nH]c3ccccc23)c2ccccc21 | – | inconclusive: 23.1%
CC1CCCN(CCCN2C(=O)C3C(C(=O)Nc4cccc(Cl)c4)C4C=CC3(O4)C2C(=O)NC2CCCCC2)C1 (stereo not given) | – | inconclusive: -70.5%
O=C(Oc1ccc(Br)cc1)C1CC(=O)N(c2ccc(F)cc2)C1 (stereo not given) | – | inconclusive: -27.2%
COn1c(SCc2cccc(Cl)c2)nc2ccccc2c1=O | – | inconclusive: 1.15%
Nc1cc(N)cc(C(=O)Nc2ccc3c(c2)C(=O)NC3=O)c1 | – | inconclusive: 14.9%
CCOc1ccc(S(=O)(=O)N2Cc3ccccc3CC2C(=O)O)cc1 (stereo not given) | – | inconclusive: -1.92%
O=C(CCC1CCCCC1)Nc1ccc(S(=O)(=O)Nc2nccs2)cc1 | – | inconclusive: -19.6%
CCC(C)NC(=O)CSc1nc2ccccc2c(=O)n1CCCC(=O)NCC1CCCO1 (stereo not given) | – | inconclusive: 37.5% [activator] [at 0.0737 µM]
O=C(Nc1ccccn1)C1CCN(S(=O)(=O)c2ccc(Cl)cc2)CC1 | inconclusive: 23.1 µM [activator, single point] | –
COC(=O)c1ccc(NC(=S)NC2CC(C)(C)NC(C)(C)C2)cc1 | – | inconclusive: 13.7%
COc1ccc(NC(=O)C2CCCN(C(=O)NC3CCCCC3)C2)cc1OC (stereo not given) | – | inconclusive: 3.39%
O=c1[nH]c(-c2ccccc2)cs1 | – | inconclusive: 4.12%
COC(=O)c1c(N2C(=O)CC(Sc3ccccc3C(=O)O)C2=O)sc2c1CCCC2 (stereo not given) | inconclusive: 5.8 µM [rising, full curve] | –
CC(=O)Nc1cccc2c1C(=O)NC2=O | inconclusive: 25.9 µM [falling, single point] | –
O=C(CN1CCN(c2ccccc2F)CC1)c1c[nH]c2ccccc12 | – | inconclusive: -28.1%
CCc1ccc(NC(=S)Nc2ccc(S(=O)(=O)Nc3ncccn3)cc2)cc1 | – | inconclusive: -23.5%
COc1ccc(CNC(=S)N/N=C/c2ccc(O)c(OC)c2)cc1 | – | inconclusive: 22.4%
CCOC(=O)C1=C(C)N(CCCCCC(=O)O)C(=O)NC1c1ccc(Cl)cc1 (stereo not given) | – | inconclusive: -43.6%
CCn1ncc(Br)c1C(=O)Nc1cc(C(=O)OC)ccc1C(=O)OC | inconclusive: 2.59 µM [activator, full curve, poor fit] | –

In another format: results already given.
CCOc1cc(/C=N\NC(=O)c2ccc(NC(=O)C(C)(C)C)cc2)ccc1OC(=O)c1ccc(C)cc1
  lipid storage change, negative = inhibition: inconclusive: -176%
C=CCN1C(=O)CSc2ccc(C(=O)NC3CCCCC3)cc21
  Potency: inconclusive: 6.51 µM [falling, single point]

Ordered by heavy-atom count (low to high): 3 of the compounds above.
SMILES | Potency | lipid storage change, negative = inhibition
CCOC(=O)c1cc(C)sc1NC(=O)CSc1nccn1C | – | inconclusive: 11.3%
O=C(CCC1CCCCC1)Nc1ccc(S(=O)(=O)Nc2nccs2)cc1 | – | inconclusive: -19.6%
CCOc1ccc(OCC)c(NC(=O)CC2Oc3ccc(C)cc3NC2=O)c1 (stereo not given) | – | inconclusive: 92.7%
